Hit rate of the full screen: of about 330,000 compounds, about 610 (0.18%) were called active. Inconclusive results, whose numbers are uncertain, are shown with a selection of clear calls. Calls come from the whole dose curve. Where the call is inconclusive, the potency comes from a doubtful curve fit. More than one record can exist for a structure, and the calls need not agree.
Test: qHTS of Yeast-based Assay for SARS-CoV PLP; note: nearly all actives have a fitted effect of over 55% in size; for activity, positive = growth rescue: 0% is about no effect
Settings: S. cerevisiae expressing SARS-CoV PLpro; Potency: growth rescue; activity, positive = growth rescue: at 32.9 µM (top of the series)
Potency is the fitted concentration of half-maximal effect.

SMILES | Potency | activity, positive = growth rescue
CCOC(=O)c1ccc(-c2ccc(C3Nc4ccccc4C(=O)N3O)o2)cc1 (stereo not drawn) | active: 5.01 µM | –
Cc1cccc(N2CCN(C(=S)Nc3ccc4nc(N5CCN(C)CC5)cc(C)c4c3)CC2)c1C | – | inactive: 2.79%
O=C(CNC(=O)N1CC(=O)Nc2ccccc21)Nc1ccccc1 | inconclusive: 20 µM [activator, single point] | –
CCCC(C)C(=O)Nc1ncc(S(=O)(=O)c2ccc([N+](=O)[O-])cc2)s1 (stereo not drawn) | inconclusive: 3.16 µM [activator, single point] | –
N#Cc1ccc(Cn2ccnc2C(=O)Nc2ccccc2)cc1 | – | inactive: -1.55%
O=C(COC(=O)COc1ccccc1Cc1ccccc1)Nc1cccnc1Cl | inconclusive: 0.398 µM [activator, full curve, poor fit] | –
S=C1N(c2ccccc2)C(c2cccc3ccccc23)N2CCCN12 (stereo not drawn) | inconclusive: 10 µM [activator, partial curve] | –
O=C(Cc1cccs1)N1CCCC(c2nc3c(nnn3Cc3cccc(Cl)c3)c(=O)[nH]2)C1 (stereo not drawn) | inconclusive: 3.98 µM [activator, single point] | –
O=C(O)CC1C(=O)NCCN1Cc1ccc(F)c(F)c1 (stereo not drawn) | inconclusive: 3.16 µM [activator, partial curve] | –
COc1ccc(C23CC4CC(CC(C4)C2)C3)cc1C(=O)NCCN(C)C | – | inactive: -4.44%
COc1cc(/C=N/NC(N)=S)ccc1OCc1ccc(C)cc1 | inconclusive: 20 µM [activator, single point] | –
CC1C(=O)CC(c2ccco2)NC1c1ccco1 (stereo not drawn) | inconclusive: 20 µM [activator, single point] | –
Cc1ccc2c(c1)CCCN2N=O | inconclusive: 4.47 µM [activator, single point] | –
O=C(NCc1nnc2c(C(F)(F)F)cc(Cl)cn12)c1ccc(Br)o1 | inconclusive: 3.16 µM [activator, single point] | –
COc1ccccc1C1/C(=C(/O)c2ccc(C)cc2)C(=O)C(=O)N1Cc1ccco1 (stereo not drawn) | inconclusive: 12.6 µM [activator, partial curve, poor fit] | –
Cc1nn(C)c(C)c1S(=O)(=O)N(CC(=O)NCCN1CCOCC1)c1ccc(C(C)C)cc1 | inconclusive: 20 µM [activator, single point] | –
COc1ccc(NC(=O)CCn2c(=S)[nH]c3ccccc3c2=O)cc1 | inconclusive: 20 µM [activator, single point] | –
CCCC(C(=O)NCc1ccccc1)N(C(=O)Cn1nnc(-c2cccs2)n1)c1ccc2c(c1)OCCO2 (stereo not drawn) | inconclusive: 20 µM [activator, partial curve] | –
CCOc1ccc(C2(C)CC(=O)N(C)C2=O)cc1 (stereo not drawn) | inconclusive: 2 µM [activator, full curve] | –
CCOc1ccc(-c2c(C(=O)N/N=C/c3ccc(OC)cc3)nnn2-c2nonc2N)cc1 | active: 20 µM | –
CCc1ccccc1NC(=O)CCCSc1nc2ccccc2s1 | – | inactive: 14%
COc1ccc(N(CC(=O)NCc2ccco2)S(C)(=O)=O)cc1Cl | – | inactive: -7.06%
CC(=O)N1CCc2cc(S(=O)(=O)NC(C(=O)NC(C)c3ccccc3)C(C)C)ccc21 (stereo not drawn) | inconclusive: 2.51 µM [activator, single point] | –
O=C(OCC#CCSc1nc2ccccc2s1)c1ccco1 | inconclusive: 2.24 µM [activator, full curve] | –
COc1cccc(/C=N/NC(=O)CC(=O)NCCc2ccc(OC)c(OC)c2)c1 | inconclusive: 4.47 µM [activator, single point] | –

SMILES | Potency | activity, positive = growth rescue
COc1cc(CN2CCN(S(=O)(=O)c3ccc(F)cc3)CC2)cc(OC)c1OC | inconclusive: 3.98 µM [activator, single point] | –
O=C(N[C@@H](Cc1ccccc1)C(=O)O)c1cccnc1 | – | inactive: 18%
FC(F)Oc1ccc(NC(=S)NCc2ccccc2)cc1Cl | – | inactive: -9.35%
O=C(O)c1ccc(S(=O)(=O)N[C@H](Cc2ccc(C(F)(F)F)cc2)C(=O)O)cc1 | active: 2.82 µM | –
Cc1cccc(CNC(=O)c2ccccc2N)c1 | – | inactive: -4.51%
OCCN1CCN(Cc2cc(Cl)c3cccnc3c2O)CC1 | active: 17.8 µM | –
N#Cc1ccccc1NC1=CC(=O)CCC1 | inconclusive: 14.1 µM [activator, single point] | –
O=C(N/N=C/c1ccccc1)c1ccc(CN2C(=O)c3cccc4cccc2c34)cc1 | – | inactive: 1.3%
Cc1cc(SCC(=O)c2ccccc2)nc(=O)[nH]1 | inconclusive: 3.98 µM [activator, full curve] | –
CCOC(=O)c1ccc(N/C=C/C(=O)c2ccc(OC)cc2)cc1 | inconclusive: 20 µM [activator, single point] | –
CCCC(=O)NC(c1ccc(N(C)C)cc1)c1ccc2cccnc2c1O (stereo not drawn) | active: 7.08 µM | –
CCOC(=O)N1CCN(S(=O)(=O)c2cc(Cl)ccc2Cl)CC1 | inconclusive: 11.2 µM [activator, partial curve] | –
CCOc1ccc(CCNC(=O)COC(=O)CCS(=O)(=O)c2ccc(C)cc2)cc1OCC | inconclusive: 4.47 µM [activator, single point] | –
O=C(NC(=S)Nc1ccc(CN2CCOCC2)cc1)c1ccc(-c2ccc(Br)cc2)o1 | – | inactive: 0.599%
Cc1cc(OCCn2cnc3ccccc3c2=O)ccc1[N+](=O)[O-] | inconclusive: 3.98 µM [activator, single point] | –
Cc1ccc(NC(=O)N2CCN(c3ccccn3)CC2)cc1 | inconclusive: 3.98 µM [activator, partial curve] | –
Cc1ccc(S(=O)(=O)N2CCC(C(=O)NCCN3CCOCC3)CC2)cc1C | inconclusive: 2.24 µM [activator, single point] | –
O=C(NCCc1ccccc1)c1ccccc1SCC(=O)N1CCCC1 | – | inactive: 3.23%
COc1ccc(CCNC(=O)C(NS(=O)(=O)c2cccc3nsnc23)C(C)C)cc1OC (stereo not drawn) | inconclusive: 2.82 µM [activator, single point] | –
Cc1cc(NC2CCCCC2)nc(NCc2ccccc2)n1 | inconclusive: 12.6 µM [activator, partial curve] | –
Cc1cccc(-c2ccc3ncnc(NCc4cccs4)c3c2)c1 | active: 6.31 µM | –
COC(=O)CNC(c1ccccc1)c1cc(C)ccc1NC(=O)CNC(=O)OCc1ccccc1 (stereo not drawn) | – | inactive: -5.4%
O=C(c1ccc(Cl)cc1)N1CCN(c2ccc(F)cc2)CC1 | inconclusive: 1.58 µM [activator, partial curve] | –
O=C(CCc1nnc(Cc2ccc3c(c2)OCO3)o1)NC(c1ccccn1)C(F)(F)F (stereo not drawn) | – | inactive: -0.995%
c1ccc2nc(-c3nc4ccccc4o3)ccc2c1 | – | inactive: -23.2%

Entries of single compounds as entered above:
O=C(CCc1nnc(Cc2ccc3c(c2)OCO3)o1)NC(c1ccccn1)C(F)(F)F (stereo not drawn) reads activity, positive = growth rescue: inactive: -0.995%
Cc1cc(SCC(=O)c2ccccc2)nc(=O)[nH]1 reads Potency: inconclusive: 3.98 µM [activator, full curve]
Cc1cccc(CNC(=O)c2ccccc2N)c1 reads activity, positive = growth rescue: inactive: -4.51%

Single entries from the results shown.
`Cc1cccc(CNC(=O)c2ccccc2N)c1` | activity, positive = growth rescue: inactive: -4.51%
`COc1cc(CN2CCN(S(=O)(=O)c3ccc(F)cc3)CC2)cc(OC)c1OC` | Potency: inconclusive: 3.98 µM [activator, single point]

More compounds follow:

SMILES | Potency | activity, positive = growth rescue
CC(CN1CCN(C)CC1)OC(=O)c1ccccc1Cl (stereo not drawn) | inconclusive: 20 µM [activator, single point] | –
CCC1CCc2sc(C(=O)N3CCCN(C)CC3)cc2C1 (stereo not drawn) | inconclusive: 3.55 µM [activator, single point] | –
O=C(O)CCCC(=O)N1N=C(c2ccccc2)CC1c1cccs1 (stereo not drawn) | – | inactive: -0.11%
CCOC(=O)c1cc(NC(=O)NC2CCCCC2)c(C)nc1C | – | inactive: -2.02%
CCOC(=O)N1CCN(C(=O)CN2C(=O)CC(C)(C)S(=O)(=O)c3ccccc32)CC1 | inconclusive: 14.1 µM [activator, single point] | –
Cc1cccc(C)c1OCCNC(=O)CCC(=O)c1ccccc1 | inconclusive: 22.4 µM [activator, partial curve, poor fit] | –
CC1=CC(C)(C)N(S(=O)(=O)c2ccc(F)cc2)c2ccc(C)cc21 | – | inactive: 0.368% [at 6.58 µM]
Cc1cc(C)n(-c2ccc(Cl)c(C(=O)OCC(N)=O)n2)n1 | inconclusive: 14.1 µM [activator, single point] | –
COc1ccc(-c2nnc3n2C(C)(C)Cc2cc(OC)c(OC)cc2-3)cc1 | inconclusive: 4.47 µM [activator, single point] | –
COc1ccc(OC)c(C2C=C(C34CC5CC(CC(C5)C3)C4)NC(=S)N2)c1 (stereo not drawn) | inconclusive: 3.55 µM [activator, single point] | –
Cc1ccc(S(=O)(=O)N2CCC(C(=O)Nc3nnc(-c4ccc(F)cc4)s3)CC2)cc1 | inconclusive: 20 µM [activator, single point] | –
Cc1coc2c(C)c3oc(=O)c(CCC(=O)NCCCN4CCOCC4)c(C)c3cc12 | – | inactive: -9.87%
C=CCn1c(SCC(=O)Nc2cc(C)ccc2OC)nnc1-c1ccco1 | inconclusive: 20 µM [activator, single point] | –
COc1ccc(CNC(=S)Nc2ccc(OC)cc2)cc1 | active: 11.2 µM | –
COc1ccccc1C(=O)C1CCCN(C(=O)c2cnn(C(C)C)c2)C1 (stereo not drawn) | inconclusive: 3.98 µM [activator, full curve] | –
CCN(CC)c1ccc(/C=N/Nc2ccc(C)cc2)c(O)c1 | inconclusive: 3.98 µM [activator, single point] | –
Cc1ccc2[nH]c(C(=O)O)c(-c3ccccc3)c2c1 | – | inactive: 5.37%
Cc1ccccc1C(=O)/C(C#N)=N/Nc1c(C)n(C)n(-c2ccccc2)c1=O | active: 20 µM | –
Cc1cccc(NC(=S)N/N=C/c2ccc3c(c2)OCO3)c1 | inconclusive: 3.55 µM [activator, single point] | –
Cc1ccc(S(=O)(=O)Nc2cccc(-n3cnnn3)c2)cc1 | inconclusive: 17.8 µM [activator, single point] | –
CC(C)Cc1nnc(NC(=O)CCS(=O)(=O)c2ccc(Cl)cc2)s1 | inconclusive: 20 µM [activator, single point] | –
CCCCCCn1cnc2c(c1=O)c1nc3ccccc3nc1n2/N=C/c1ccco1 | – | inactive: 3.51%
CC12CN3CC(C)(CN(C1)C3c1ccco1)C2=O (stereo not drawn) | inconclusive: 15.8 µM [activator, single point] | –
